This passage reports binding results from article PMC3169580.

These are yes or no findings as the source states them, for the method shown. Binding seen in cells or lysates may run through a third protein. Some results given as binding are weak or reduced against the parent protein; the word gives no strength. Where a sequence is shown, tags or fusion partners need not be part of it.

This test addresses T1, dAPPBP1-HA (Drosophila) (UniProt Q9VTE9).
T1 sequence: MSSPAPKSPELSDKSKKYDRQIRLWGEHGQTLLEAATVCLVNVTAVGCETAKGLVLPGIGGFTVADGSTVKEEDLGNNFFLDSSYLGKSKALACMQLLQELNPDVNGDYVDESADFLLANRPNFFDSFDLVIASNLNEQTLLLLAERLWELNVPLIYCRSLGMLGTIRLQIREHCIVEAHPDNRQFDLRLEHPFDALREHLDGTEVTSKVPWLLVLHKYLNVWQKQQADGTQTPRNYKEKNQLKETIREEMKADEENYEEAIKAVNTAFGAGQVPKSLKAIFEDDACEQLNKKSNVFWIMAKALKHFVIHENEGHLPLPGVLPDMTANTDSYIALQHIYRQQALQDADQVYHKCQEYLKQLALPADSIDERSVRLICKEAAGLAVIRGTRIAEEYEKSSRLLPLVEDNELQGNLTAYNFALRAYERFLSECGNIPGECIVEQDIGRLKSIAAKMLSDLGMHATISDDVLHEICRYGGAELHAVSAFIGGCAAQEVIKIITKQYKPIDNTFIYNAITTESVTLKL
In words: co-IP; cl-8 cells transiently transfected with dAPPBP1-HA and CG13343-V5; lysed in NP-40 buffer (1% NP-40, 150 mM NaCl, 50 mM Tris-Cl, pH 8); anti-HA-conjugated agarose used to precipitate dAPPBP1-HA; 0.5% of lysate as input.

B1: V5-tagged CG13343 (CG13343-V5) (enzyme, UniProt Q9V6U8 1-450)
chain: MSVHSPNPGLILQSKRFNGLRNILEREGPFCKDGFAASSENLEFLQTKCQVLIIGAGGLGCELLKDLALMGFGNLHVIDMDTIELSNLNRQFLFRRTDIGASKAECAARFINARVPTCRVTPHFKKIQDFDESFYQQFHLVVCGLDSIVARRWINGMLLSMLRYEEDGTIDTSSIVPMIDGGTEGFKGNARVILPGFTACIECTLDLFPPQVNYPLCTIANTPRLPEHCIEYVKIIQWEKQNPFGVPLDGDDPQHIGWIYERALERSNEFNITGVTYRLVQGVVKHIIPAVASTNAAIAAACALEVFKLATSCYDSMANYLNFNDLDGIYTYTYEAEKSENCLACSNTPQPLPIEDPNTTTLEDVIKLLCDSPRFQLKSPALTTVMKDGKRRTLYMSGVKSIEEATRKNLTQSLGELGLHDGQQLTVTDATSPSAMTLQLKYQSNEVEMV
For the molecule B1, the binding result is reported as “binds”.
